According to PubChem BioAssay AID1688 (National Center for Advancing Translational Sciences (NCATS), 2009):
The campaign covered roughly 220,000 compounds. About 2,400 (1.1%) were called active. The shares of active, inactive and inconclusive entries below differ from those in the screen. Calls follow the shape of the dose curve; as a rule, active = well fitted inhibition curve with a large enough effect; inconclusive = small, poorly fitted or top-dose-only effect, or effect the other way; inactive = no such curve, though single readings can be large or run the other way. Potencies beside an inconclusive call are fits to weak or partial responses and may not hold up.

Experiment: qHTS Multiplex Assay to Identify Dual Action Probes in a Cell Model of Huntington: Aggregate Formation (GFP); also: nearly all actives have a fitted effect of over 60% in size
Details: PC12 HttQ103-GFP aggregates, Acumen cytometry, 40 h; activity change, negative = inhibition: at 46.1 µM (top of the series) unless noted
Outline: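 Aggregates are detected as GFP objects 1–25 µm with signal 6 STDEV over background in lysates of induced PC12 cells. These carry Huntingtin exon 1 with 103 glutamines fused to GFP under an ecdysone promoter; compounds titrated.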
% is scaled to controls: 0 for no effect and ±100 for the full control effect; potency is read from the fitted curve at half-maximal effect.

Row | SMILES | Potency | activity change, negative = inhibition
1 | Cc1ccc(C)c2[nH]c(=O)c(CCNC(=O)c3ccc(S(=O)(=O)N(C)C)cc3)cc12 | inconclusive: 5.01 µM [inhibitor, single point] | 
2 | O=C1CCCc2nc(N3CCN(Cc4ccccc4)CC3)ncc21 | active: 11.2 µM | 
3 | O=C(/C=C/c1cccc([N+](=O)[O-])c1)c1cccs1 | inconclusive: 35.5 µM [activator, single point] | 
4 | O=C1c2ccccc2C2=Nc3ccccc3SC(c3ccccc3F)C12 (stereo not given) | inconclusive: 11.2 µM [inhibitor, single point] | 
5 | O=C(O)/C=C\C(=O)Nc1ccc(N2CCN(c3ccc(Cl)c(Cl)c3)CC2)cc1 |  | inactive: 20.9% [at 9.22 µM]
6 | Cc1nc2cccc(C)n2c(=O)c1Cl | inconclusive: 3.16 µM [inhibitor, single point] | 
7 | O=C(C1CCC(CNS(=O)(=O)c2cccc3nsnc23)CC1)N1CC=C(c2ccccc2)CC1 (stereo not given) | active: 8.91 µM | 
8 | Cc1cc(/C=N/n2cnnc2)c(C)n1-c1cc(Cl)ccc1Cl | inactive | 
9 | NC(=O)NC(=O)COC(=O)[C@H](Cc1ccccc1)NC(=O)c1cccs1 | inactive | 
10 | CNC(=O)c1c2c(nc3ccc(Br)cc13)CCCC2 | inactive | 
11 | Cn1c(=O)c(=O)n(C)c2cc([N+](=O)[O-])c([N+](=O)[O-])cc21 | inconclusive: 35.5 µM [inhibitor, single point] | 
12 | COC(=O)c1ccc(N2C(=O)CC(N(C)Cc3ccccc3)C2=O)cc1 (stereo not given) | inconclusive: 1.26 µM [inhibitor, single point] | 
13 | O=C(c1cc2cc(Cl)ccc2oc1=O)N1CCCC1 | inactive | 
14 | COc1ccccc1NC(=S)NCc1cccs1 | inconclusive: 17.8 µM [activator, single point] | 
15 | CS(=O)(=O)Nc1cccc(C2=NN(C(=O)c3ccccc3Cl)C(c3ccccc3O)C2)c1 (stereo not given) | inconclusive: 5.62 µM [activator, single point] | 
16 | O=C1NC(c2ccccc2)Nc2c1sc(=S)n2-c1ccccc1 (stereo not given) | inconclusive: 35.5 µM [inhibitor, single point] | 
17 | CCN(CCO)Cc1cc(=O)oc2cc3c(cc12)CCC3 | inactive | 
18 | N/C(Cc1ccc(Cl)cc1)=N\OC(=O)Cc1ccc([N+](=O)[O-])cc1 | inconclusive: 2.24 µM [activator, single point] | 
19 | Cc1ccc2cccc(N=Cc3c(C)[nH]n(-c4ccccc4)c3=O)c2n1 | inconclusive: 3.98 µM [inhibitor, partial curve] | 
20 | CCc1cc2cc(C)cc(C)c2nc1SCC(=O)N1CCN(C(=O)c2ccco2)CC1 | inconclusive: 1 µM [activator, full curve, poor fit] | 

Complete entries, looked up by structure.
O=C(C1CCC(CNS(=O)(=O)c2cccc3nsnc23)CC1)N1CC=C(c2ccccc2)CC1 (stereo not given) as listed: Potency: active: 8.91 µM
COC(=O)c1ccc(N2C(=O)CC(N(C)Cc3ccccc3)C2=O)cc1 (stereo not given) as listed: Potency: inconclusive: 1.26 µM [inhibitor, single point]
